The assay concerns the target Swr1-3xFLAG (yeast) (UniProt Q05471). Put plainly: sequential affinity purification.

Sequences of proteins named here, by UniProt entry; tags and fusion partners are left off.
UniProt Q05471: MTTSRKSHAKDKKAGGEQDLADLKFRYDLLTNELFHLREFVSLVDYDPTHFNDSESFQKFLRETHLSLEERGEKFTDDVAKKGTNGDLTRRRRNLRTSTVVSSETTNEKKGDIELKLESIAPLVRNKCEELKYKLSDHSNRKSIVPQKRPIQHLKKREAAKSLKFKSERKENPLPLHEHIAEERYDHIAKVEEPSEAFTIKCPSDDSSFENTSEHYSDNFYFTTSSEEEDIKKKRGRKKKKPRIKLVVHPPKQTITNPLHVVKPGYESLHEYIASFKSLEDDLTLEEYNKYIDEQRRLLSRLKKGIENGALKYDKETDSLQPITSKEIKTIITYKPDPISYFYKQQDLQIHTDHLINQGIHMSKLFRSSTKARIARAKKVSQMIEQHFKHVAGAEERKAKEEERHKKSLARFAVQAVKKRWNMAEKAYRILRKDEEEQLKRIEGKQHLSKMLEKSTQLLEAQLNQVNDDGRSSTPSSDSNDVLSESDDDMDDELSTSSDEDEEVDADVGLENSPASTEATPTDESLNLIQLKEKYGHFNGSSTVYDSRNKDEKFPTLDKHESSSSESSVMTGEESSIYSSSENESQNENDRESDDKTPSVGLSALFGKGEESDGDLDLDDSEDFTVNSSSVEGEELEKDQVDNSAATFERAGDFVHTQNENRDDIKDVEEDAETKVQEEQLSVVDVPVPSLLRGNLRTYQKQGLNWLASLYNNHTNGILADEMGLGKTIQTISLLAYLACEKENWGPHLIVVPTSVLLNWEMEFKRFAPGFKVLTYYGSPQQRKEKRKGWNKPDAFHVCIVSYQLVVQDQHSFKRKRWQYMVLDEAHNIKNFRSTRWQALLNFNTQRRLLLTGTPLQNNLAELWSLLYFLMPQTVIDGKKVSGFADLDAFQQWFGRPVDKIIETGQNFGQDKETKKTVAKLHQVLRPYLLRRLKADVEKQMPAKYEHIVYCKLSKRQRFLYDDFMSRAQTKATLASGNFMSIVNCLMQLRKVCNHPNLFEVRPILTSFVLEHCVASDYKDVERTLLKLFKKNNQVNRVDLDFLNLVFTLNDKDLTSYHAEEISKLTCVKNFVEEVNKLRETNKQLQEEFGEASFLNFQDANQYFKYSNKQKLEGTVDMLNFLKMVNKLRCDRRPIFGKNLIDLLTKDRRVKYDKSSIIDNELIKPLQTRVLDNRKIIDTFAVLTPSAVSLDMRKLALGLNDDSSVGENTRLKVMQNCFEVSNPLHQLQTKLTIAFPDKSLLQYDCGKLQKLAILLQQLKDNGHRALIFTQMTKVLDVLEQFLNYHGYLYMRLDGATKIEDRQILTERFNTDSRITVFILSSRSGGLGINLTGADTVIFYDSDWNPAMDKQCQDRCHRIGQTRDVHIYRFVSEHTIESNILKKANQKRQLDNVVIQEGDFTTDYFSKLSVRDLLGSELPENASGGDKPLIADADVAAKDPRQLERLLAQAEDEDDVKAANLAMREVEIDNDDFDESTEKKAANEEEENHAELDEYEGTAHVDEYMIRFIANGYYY
UniProt Q03940: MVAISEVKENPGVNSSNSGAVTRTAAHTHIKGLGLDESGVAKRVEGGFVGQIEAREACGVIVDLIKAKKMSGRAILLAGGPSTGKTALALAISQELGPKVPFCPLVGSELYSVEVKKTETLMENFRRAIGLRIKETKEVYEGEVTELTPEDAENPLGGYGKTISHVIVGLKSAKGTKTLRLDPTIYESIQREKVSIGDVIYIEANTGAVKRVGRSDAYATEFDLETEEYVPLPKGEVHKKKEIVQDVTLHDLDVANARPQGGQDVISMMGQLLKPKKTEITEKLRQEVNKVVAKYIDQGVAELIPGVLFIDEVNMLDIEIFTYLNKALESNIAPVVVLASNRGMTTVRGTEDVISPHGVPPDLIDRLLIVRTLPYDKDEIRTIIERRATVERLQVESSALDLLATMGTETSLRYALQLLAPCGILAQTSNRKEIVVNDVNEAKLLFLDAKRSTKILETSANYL

Results are given in words; binding and its absence hold for the method and conditions named. Some binding calls cover weakened binding; strength is not graded here.

Take Rvb1-MBP (from UniProt Q03940 1-463): the binding result was “binds”.

The record behind these values is doi:10.1101/2023.12.06.570360.
